The list shows a part of the results. Repeats are few or missing, and single values can be far off.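 The apoptosis fraction was the count of cleaved-PARP antibody-stained nuclei relative to all DNA-stained nuclei, imaged in 1,536-well plates. Screening doses were set so most cells survived, and baseline and induced cleaved-PARP levels vary greatly across cell lines.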
Experiments:
Experiment in all cases: cleaved PARP positive nuclei fraction relative to DMSO control; melanoma cells; higher = more apoptosis
Settings in all cases: library dose: low library concentration; 72 h
CBRC034 = system: CBRC034 (line from a melanoma biopsy)
COLO792 = system: COLO792
COLO800 = system: COLO800
COLO829 = system: COLO829
G361 = system: G361
IPC-298 = system: IPC-298
IST-MEL1 = system: IST-MEL1
LB2518-MEL = system: LB2518-MEL
LOXIMVI = system: LOXIMVI
MEL-HO = system: MEL-HO

| SMILES | cleaved PARP positive nuclei fraction (CBRC034) [%] | cleaved PARP positive nuclei fraction (COLO792) [%] | cleaved PARP positive nuclei fraction (COLO800) [%] | cleaved PARP positive nuclei fraction (COLO829) [%] | cleaved PARP positive nuclei fraction (G361) [%] | cleaved PARP positive nuclei fraction (IPC-298) [%] | cleaved PARP positive nuclei fraction (IST-MEL1) [%] | cleaved PARP positive nuclei fraction (LB2518-MEL) [%] | cleaved PARP positive nuclei fraction (LOXIMVI) [%] | cleaved PARP positive nuclei fraction (MEL-HO) [%] |
| --- | --- | --- | --- | --- | --- | --- | --- | --- | --- | --- |
| N.N.[Cl][Pt][Cl] [cisplatin] + O=C(O)c1ccc2c(c1)nc(Nc1cccc(Cl)c1)c1ccncc12 [CX4945] (first compound 1.6 µM, partner dose 0.4 µM) | 345 | 96.5 | 140 | 151 | 234 | 106 | 59.9 | 104 | 69.7 | 137 |
| C[C@]12O[C@H](C[C@]1(O)CO)n1c3ccccc3c3c4c(c5c6ccccc6n2c5c31)CNC4=O [Lestaurtinib] + CCCS(=O)(=O)Nc1ccc(F)c(C(=O)c2c[nH]c3ncc(Cl)cc23)c1F [PLX4720] (first compound 0.004 µM, partner dose 0.08 µM) | 61.1 | 48.3 | 94.8 | 114 | 65.3 | 137 | 305 | 88 | 130 | 54.9 |
| N.N.[Cl][Pt][Cl] [cisplatin] + C#Cc1cccc(Nc2ncnc3cc(OCCOC)c(OCCOC)cc23)c1 [erlotinib] (first compound 1.6 µM, partner dose 0.8 µM) | 82.1 | 65.2 | 126 | 74.2 | 53 | 59.5 | 91.8 | 115 | 51.8 | 37.5 |
| NC1(c2ccc(-c3nc4ccn5c(=O)[nH]nc5c4cc3-c3ccccc3)cc2)CCC1 + N.N.[Cl][Pt][Cl] [cisplatin] (first compound 0.4 µM, partner dose 1.6 µM) | 358 | 226 | 113 | 179 | 33.4 | 184 | 96.9 | 56.6 | 127 | 28.8 |
| Cc1ccc(Nc2nccc(N(C)c3ccc4c(C)n(C)nc4c3)n2)cc1S(N)(=O)=O [Pazopanib] + N.N.[Cl][Pt][Cl] [cisplatin] (first compound 0.4 µM, partner dose 1.6 µM) | 20.5 | 62.6 | 74.4 | 79.6 | 41.1 | 149 | 128 | 156 | 79.5 | 116 |
| CCCCCCCCCCCCCCCCCCOP(=O)([O-])OC1CC[N+](C)(C)CC1 [Perifosine] + N.N.[Cl][Pt][Cl] [cisplatin] (first compound 0.4 µM, partner dose 1.6 µM) | 96.5 | 83 | 110 | 55.1 | 91.4 | 44.6 | 63 | 74.7 | 52.8 | 96.3 |
| Cc1cn(-c2cc(NC(=O)c3ccc(C)c(Nc4nccc(-c5cccnc5)n4)c3)cc(C(F)(F)F)c2)cn1 [nilotinib] + C[C@]12O[C@H](C[C@]1(O)CO)n1c3ccccc3c3c4c(c5c6ccccc6n2c5c31)CNC4=O [Lestaurtinib] (first compound 0.2 µM, partner dose 0.004 µM) | 59.4 | 77.5 | 98.1 | 71.2 | 146 | 43.4 | 122 | 164 | 159 | 125 |
| C[As](C)SC[C@H](NC(=O)CC[C@H](N)C(=O)O)C(=O)NCC(=O)O [Darinaparsin] + COCC[n+]1c2c(n(Cc3cnccn3)c1C)C(=O)c1ccccc1C2=O [YM155] (first compound 0.4 µM, partner dose 0.0004 µM) | 96.7 | 132 | 76.6 | 42.4 | 100 | 84.7 | 25.9 | 210 | 185 | 106 |
| Cn1cc(C2=C(c3cn(C4CCN(Cc5ccccn5)CC4)c4ccccc34)C(=O)NC2=O)c2ccccc21 [Enzastaurin] + Cn1c(=O)n(-c2ccc(C(C)(C)C#N)cc2)c2c3cc(-c4cnc5ccccc5c4)ccc3ncc21 [NVP-BEZ235] (first compound 0.8 µM, partner dose 0.004 µM) | 72.7 | 104 | 109 | 123 | 59.7 | 26.4 | 172 | 153 | 192 | 38.3 |
| C[C@]12O[C@H](C[C@]1(O)CO)n1c3ccccc3c3c4c(c5c6ccccc6n2c5c31)CNC4=O [Lestaurtinib] + CS(=O)(=O)c1ccc(C(=O)Nc2ccc(Cl)c(-c3ccccn3)c2)c(Cl)c1 [vismodegib] (first compound 0.004 µM, partner dose 1 µM) | 107 | 167 | 85.2 | 92.1 | 103 | 91.3 | 132 | 234 | 87.8 | 211 |
| Cn1cnc2c(F)c(Nc3ccc(Br)cc3Cl)c(C(=O)NOCCO)cc21 [selumetinib] + C[As](C)SC[C@H](NC(=O)CC[C@H](N)C(=O)O)C(=O)NCC(=O)O [Darinaparsin] (first compound 0.015 µM, partner dose 0.4 µM) | 169 | 89.6 | 232 | 87.6 | 77.1 | 51.2 | 62.3 | 162 | 33.2 | 84.4 |

Limited to cleaved PARP positive nuclei fraction (G361) [%], for some of the entries so far:
SMILES	cleaved PARP positive nuclei fraction (G361) [%]
C[As](C)SC[C@H](NC(=O)CC[C@H](N)C(=O)O)C(=O)NCC(=O)O [Darinaparsin] + COCC[n+]1c2c(n(Cc3cnccn3)c1C)C(=O)c1ccccc1C2=O [YM155] (first compound 0.4 µM, partner dose 0.0004 µM)	100
Cn1cc(C2=C(c3cn(C4CCN(Cc5ccccn5)CC4)c4ccccc34)C(=O)NC2=O)c2ccccc21 [Enzastaurin] + Cn1c(=O)n(-c2ccc(C(C)(C)C#N)cc2)c2c3cc(-c4cnc5ccccc5c4)ccc3ncc21 [NVP-BEZ235] (first compound 0.8 µM, partner dose 0.004 µM)	59.7

Reference: the supplement of paper PMC4604168 (melanoma cell lines)
